{"sequences": {"note": "Protein sequences, listed by entry. Tags and fused reporters are not part of them. Lines headed by an entry give the natural chain unless they say otherwise; changes in a name come on top.", "UniProt P42680": "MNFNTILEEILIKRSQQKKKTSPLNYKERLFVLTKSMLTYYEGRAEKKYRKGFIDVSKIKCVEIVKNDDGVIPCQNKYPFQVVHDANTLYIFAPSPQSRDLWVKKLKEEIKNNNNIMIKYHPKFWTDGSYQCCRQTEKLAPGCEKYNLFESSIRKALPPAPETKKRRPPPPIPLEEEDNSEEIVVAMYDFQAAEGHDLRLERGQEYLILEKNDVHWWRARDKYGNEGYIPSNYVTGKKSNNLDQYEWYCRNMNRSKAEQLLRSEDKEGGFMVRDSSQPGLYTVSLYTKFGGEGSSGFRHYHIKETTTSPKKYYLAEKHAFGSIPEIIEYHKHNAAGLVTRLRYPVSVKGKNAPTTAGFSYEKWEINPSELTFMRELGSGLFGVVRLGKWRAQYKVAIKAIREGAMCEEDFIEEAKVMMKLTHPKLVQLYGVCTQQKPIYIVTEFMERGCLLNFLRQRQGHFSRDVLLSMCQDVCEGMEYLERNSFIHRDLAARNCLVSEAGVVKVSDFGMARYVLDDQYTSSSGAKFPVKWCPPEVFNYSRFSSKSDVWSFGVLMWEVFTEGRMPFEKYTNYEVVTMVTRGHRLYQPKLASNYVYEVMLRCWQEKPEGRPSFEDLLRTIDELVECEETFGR", "UniProt P29597": "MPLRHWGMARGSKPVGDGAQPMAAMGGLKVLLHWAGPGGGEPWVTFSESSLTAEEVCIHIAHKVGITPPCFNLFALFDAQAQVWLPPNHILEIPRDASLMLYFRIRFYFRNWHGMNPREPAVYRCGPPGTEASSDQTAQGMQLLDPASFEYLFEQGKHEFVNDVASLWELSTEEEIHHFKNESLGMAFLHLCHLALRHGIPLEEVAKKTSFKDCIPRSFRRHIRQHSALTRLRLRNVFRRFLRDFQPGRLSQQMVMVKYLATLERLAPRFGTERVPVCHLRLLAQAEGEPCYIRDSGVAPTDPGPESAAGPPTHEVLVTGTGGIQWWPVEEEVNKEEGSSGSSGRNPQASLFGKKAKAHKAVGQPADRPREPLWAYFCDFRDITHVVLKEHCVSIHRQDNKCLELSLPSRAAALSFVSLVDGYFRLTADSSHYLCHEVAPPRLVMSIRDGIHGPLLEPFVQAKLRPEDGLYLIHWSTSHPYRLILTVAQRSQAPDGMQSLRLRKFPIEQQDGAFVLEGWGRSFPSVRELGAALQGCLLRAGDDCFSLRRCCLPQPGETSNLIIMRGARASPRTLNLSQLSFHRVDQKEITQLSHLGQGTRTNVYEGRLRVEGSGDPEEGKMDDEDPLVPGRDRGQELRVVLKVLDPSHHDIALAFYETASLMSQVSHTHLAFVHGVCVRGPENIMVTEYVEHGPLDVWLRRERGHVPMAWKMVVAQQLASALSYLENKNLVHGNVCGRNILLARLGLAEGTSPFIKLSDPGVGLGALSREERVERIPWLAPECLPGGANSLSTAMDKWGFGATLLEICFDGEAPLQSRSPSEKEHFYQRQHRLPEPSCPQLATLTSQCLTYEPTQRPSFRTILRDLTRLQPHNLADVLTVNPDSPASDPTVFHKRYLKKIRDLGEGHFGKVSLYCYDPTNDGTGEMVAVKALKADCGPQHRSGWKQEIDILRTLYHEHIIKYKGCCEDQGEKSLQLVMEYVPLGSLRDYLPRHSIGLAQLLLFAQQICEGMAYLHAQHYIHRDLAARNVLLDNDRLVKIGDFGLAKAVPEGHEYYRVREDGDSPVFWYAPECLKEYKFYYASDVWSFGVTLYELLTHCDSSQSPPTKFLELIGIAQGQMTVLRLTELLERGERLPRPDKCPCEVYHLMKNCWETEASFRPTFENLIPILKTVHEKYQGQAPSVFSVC"}, "source": "the supplement of paper PMC12823440", "about": "“Inhibitors supercharge kinase turnover through native proteolytic circuits” (Nature, 2025)", "note": "Where a name gives a salt, the structure may show the parent alone. This is one part of the list. Hit calls seldom repeat between salt and free forms of one compound.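 Kinases were expressed as nanoluciferase fusions in K562 cells and luminescence was read every 4 h between 2 and 18 h as percent of control, DMSO set to 100% and a positive control to 0%. A time point counts as decreased when the signal drops significantly (2 sigma). The hit call is the authors' own, does not follow from the count of time points alone, and its rule is not shown.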"}
{"target": "TEC (UniProt P42680)", "assay": "number of time points (of 5) at which kinase-Nluc abundance scored as decreased, DMSO-normalised (count); higher = more persistent destabilization", "settings": "K562; 2-18 h"}
{"compound": "C/C(=C1/C(=O)Nc2ccc(NC(N)=O)cc21)c1ccc[nH]1", "note": "(10 µM)", "number of time points": 0}
{"compound": "Nc1ncnc2c1c(-c1ccc(Oc3ccccc3)cc1)nn2C1CCNCC1", "note": "[N-piperidine Ibrutinib (hydrochloride)] (10 µM)", "number of time points": 0}
{"compound": "N#Cc1ccc2ncnc(NC3CCC(N4CCOCC4)CC3)c2c1", "note": "(centres undefined) (10 µM)", "number of time points": 0}
{"compound": "CC(=O)c1c(C)c2cnc(Nc3ccc(N4CCN(CCCCNC(=O)COc5cccc6c5C(=O)N(C5CCC(=O)NC5=O)C6=O)CC4)cn3)nc2n(C2CCCC2)c1=O", "note": "(centres undefined) (10 µM)", "number of time points": 0}
{"compound": "CC(C)=CC(=O)CCC(=O)N1CCN(Cc2cc3nc(-c4cccc5[nH]ncc45)nc(N4CCOCC4)c3s2)CC1", "note": "(10 µM)", "number of time points": 0}
{"compound": "Cc1ccc(S(=O)(=O)Nc2ccccc2C=Nc2ccccc2NS(=O)(=O)c2ccc(C)cc2)cc1", "note": "(10 µM)", "number of time points": 0}
{"compound": "NCCN1CCN(C/C=C/C(=O)N2CCC[C@@H](n3nc(-c4ccc(Oc5ccccc5)cc4)c4c(N)ncnc43)C2)CC1", "note": "[Ibrutinib-MPEA] (10 µM)", "number of time points": 0}
{"compound": "O=C(CNC(=O)c1ccc(-c2ccccc2)cc1)NC1CCCc2ccccc21", "note": "(centres undefined) [TAO Kinase inhibitor 1] (10 µM)", "number of time points": 0}
{"compound": "CC(C)CN(CC(=O)N1CCN(CC(OCc2ccc3ccccc3c2)c2ccc(Cl)cc2Cl)CC1)CC(C)C", "note": "(centres undefined) [LYN-1604 (dihydrochloride)] (2.5 µM)", "number of time points": 0}
{"compound": "CO[C@H]1C[C@@H]2CC[C@@H](C)[C@@](O)(O2)C(=O)C(=O)N2CCCC[C@H]2C(=O)O[C@H]([C@H](C)C[C@@H]2CC[C@@H](O)[C@H](OC)C2)CC(=O)[C@H](C)/C=C(\\C)[C@@H](O)[C@@H](OC)C(=O)[C@H](C)C[C@H](C)/C=C/C=C/C=C/1C", "note": "[Rapamycin] (10 µM)", "number of time points": 0}
{"compound": "Cc1ccc(Nc2cc(-c3cccc(N4C(=O)c5ccccc5C4=O)c3)ncn2)cc1NS(C)(=O)=O", "note": "(10 µM)", "number of time points": 0}
{"compound": "Nc1cc(Nc2ccc(S(N)(=O)=O)cc2)ncn1", "note": "(10 µM)", "number of time points": 0}
{"compound": "CCOc1cc(C(=O)N2CCC(N3CCN(C)CC3)CC2)ccc1Nc1ncc2c(n1)N(C1CCCC1)c1ccccc1C(=O)N2C", "note": "(10 µM)", "number of time points": 0}
{"compound": "COCCOc1ccc(-c2cn(-c3ccccc3)c3nc[nH]c(=O)c23)cc1", "note": "(10 µM)", "number of time points": 0}
{"compound": "Cc1cc(O)c(C(C)C)cc1N=O", "note": "[Poloxime] (10 µM)", "number of time points": 0}
{"target": "TYK2 (UniProt P29597)", "assay": "number of time points (of 5) at which kinase-Nluc abundance scored as decreased, DMSO-normalised (count); higher = more persistent destabilization", "settings": "K562; 2-18 h"}
{"compound": "COc1ccc(Cn2cc(C(=O)N=Nc3c(O)[nH]c4c(C)cccc34)nn2)cc1", "note": "[MARK4 inhibitor 1] (10 µM)", "number of time points": 0}
{"compound": "COc1cc([N+](=O)[O-])ccc1S(=O)(=O)N1C[C@@H](CN2CCN(c3ccccn3)CC2)[C@H](c2cccc(F)c2)C1", "note": "(relative stereo) (10 µM)", "number of time points": 0}
{"compound": "Cc1cc(Nc2nc(N[C@@H](C)c3ccc(F)cc3)c(C#N)cc2F)n[nH]1", "note": "(10 µM)", "number of time points": 0}
{"compound": "Cc1ccc(S(=O)(=O)/C=C/C#N)cc1", "note": "(10 µM)", "number of time points": 0}
{"compound": "Cc1c(CN2CCN(S(C)(=O)=O)CC2)sc2c(N3CCOCC3)nc(-c3cnc(N)nc3)nc12", "note": "(2.5 µM)", "number of time points": 0}
{"compound": "COc1ccc(-c2ccc3c(N4CCOC[C@@H]4C)nc(N4CCOC[C@@H]4C)nc3n2)cc1CO", "note": "(2.5 µM)", "number of time points": 4}
{"compound": "CCN(CC)S(=O)(=O)c1ccc(OC)c(N2CCN(C(=O)c3ccc(F)cc3C(F)(F)F)CC2)c1", "note": "(10 µM)", "number of time points": 0}
{"compound": "CC1CN(C(=O)Nc2ccc(Cl)c(Cl)c2)C(=Nc2ccc(F)cc2)S1", "note": "(centres undefined) (10 µM)", "number of time points": 0}
{"compound": "COCCO[C@@H]1[C@H](O)[C@@H](CO)O[C@H]1n1cnc2c(=O)[nH]c(N)nc21", "note": "[2′-O-(2-Methoxyethyl)guanosine] (10 µM)", "number of time points": 0}
{"compound": "COc1cc(F)c(F)c(Nc2ccc(I)cc2F)c1NS(=O)(=O)C1(C[C@H](O)CO)CC1", "note": "[Refametinib] (10 µM)", "number of time points": 0}
{"compound": "CC(C)=CC[C@H](O)C1=CC(=O)c2c(O)ccc(O)c2C1=O", "note": "[(-)-Alkannin] (2.5 µM)", "number of time points": 0}
{"compound": "C[C@@]1(O)CCC[C@H]1n1c(=O)c(C(F)F)cc2cnc(NC3CCN(S(C)(=O)=O)CC3)nc21", "note": "(2.5 µM)", "number of time points": 0}
{"compound": "CS(=O)(=O)c1ccc(-c2noc(C(F)(F)F)c2-c2ccccc2)cc1", "note": "(10 µM)", "number of time points": 0}
{"compound": "COc1ccc2[nH]cc(/C=C3\\C(=O)Nc4ccc(NC(=O)CCN5CCCCC5)cc43)c2c1", "note": "(2.5 µM)", "number of time points": 0}
{"compound": "O=C(Nc1ccc(F)cc1F)[C@H](NC(=S)Nc1cc(C(F)(F)F)cc(C(F)(F)F)c1)c1ccccc1", "note": "(2.5 µM)", "number of time points": 0}
{"compound": "CC(C)CN[C@H]1CS(=O)(=O)C[C@@H]1S(=O)(=O)c1ccc(Cl)cc1", "note": "(10 µM)", "number of time points": 1}
{"compound": "COc1ccc(C2CC(c3ccccc3)=NN2c2ccc(S(N)(=O)=O)cc2)cc1", "note": "(centres undefined) (10 µM)", "number of time points": 0}
{"compound": "CC/C=C\\C/C=C\\C/C=C\\CCCCCCCC(=O)O", "note": "[α-Linolenic acid] (10 µM)", "number of time points": 0}
{"compound": "O=C(Nc1nc2ccccc2[nH]1)c1cccc(-n2cccc2)c1", "note": "(10 µM)", "number of time points": 0}
{"compound": "COc1ncc(-c2nc(N3CCOCC3)nc3c(CN4CCC(C(C)(C)O)CC4)cc(F)cc23)cc1NS(C)(=O)=O", "note": "[Linperlisib] (10 µM)", "number of time points": 0}
{"compound": "COc1ccc([C@H]2c3[nH]c4ccc(Cl)cc4c3CCN2C(=O)Oc2ccc(Cl)cc2)cc1", "note": "(2.5 µM)", "number of time points": 0}
{"compound": "COc1c(NC(=O)C(=O)c2ccc(OCCN3CCOCC3)c3ccccc23)cc(C(C)(C)C)cc1NS(C)(=O)=O", "note": "(2.5 µM)", "number of time points": 0}
{"compound": "COc1ccc([C@@H]2CC(=O)c3c(O)cc(O)cc3O2)cc1O", "note": "[Hesperetin] (10 µM)", "number of time points": 0}
{"compound": "N#Cc1cccc(-c2c[nH]c3ncnc(N4CCOCC4)c23)c1", "note": "(10 µM)", "number of time points": 0}
{"compound": "C/C(=C1/C(=O)Nc2ccc(NC(N)=O)cc21)c1ccc[nH]1", "note": "(10 µM)", "number of time points": 0}
{"compound": "Nc1ncnc2c1c(-c1ccc(Oc3ccccc3)cc1)nn2C1CCNCC1", "note": "[N-piperidine Ibrutinib (hydrochloride)] (10 µM)", "number of time points": 0}
{"compound": "N#Cc1ccc2ncnc(NC3CCC(N4CCOCC4)CC3)c2c1", "note": "(centres undefined) (10 µM)", "number of time points": 0}
{"compound": "CC(=O)c1c(C)c2cnc(Nc3ccc(N4CCN(CCCCNC(=O)COc5cccc6c5C(=O)N(C5CCC(=O)NC5=O)C6=O)CC4)cn3)nc2n(C2CCCC2)c1=O", "note": "(centres undefined) (10 µM)", "number of time points": 0}
{"compound": "CC(C)=CC(=O)CCC(=O)N1CCN(Cc2cc3nc(-c4cccc5[nH]ncc45)nc(N4CCOCC4)c3s2)CC1", "note": "(10 µM)", "number of time points": 0}
{"compound": "Cc1ccc(S(=O)(=O)Nc2ccccc2C=Nc2ccccc2NS(=O)(=O)c2ccc(C)cc2)cc1", "note": "(10 µM)", "number of time points": 0}
{"compound": "NCCN1CCN(C/C=C/C(=O)N2CCC[C@@H](n3nc(-c4ccc(Oc5ccccc5)cc4)c4c(N)ncnc43)C2)CC1", "note": "[Ibrutinib-MPEA] (10 µM)", "number of time points": 0}
{"compound": "O=C(CNC(=O)c1ccc(-c2ccccc2)cc1)NC1CCCc2ccccc21", "note": "(centres undefined) [TAO Kinase inhibitor 1] (10 µM)", "number of time points": 0}
{"compound": "CC(C)CN(CC(=O)N1CCN(CC(OCc2ccc3ccccc3c2)c2ccc(Cl)cc2Cl)CC1)CC(C)C", "note": "(centres undefined) [LYN-1604 (dihydrochloride)] (2.5 µM)", "number of time points": 0}
{"compound": "CO[C@H]1C[C@@H]2CC[C@@H](C)[C@@](O)(O2)C(=O)C(=O)N2CCCC[C@H]2C(=O)O[C@H]([C@H](C)C[C@@H]2CC[C@@H](O)[C@H](OC)C2)CC(=O)[C@H](C)/C=C(\\C)[C@@H](O)[C@@H](OC)C(=O)[C@H](C)C[C@H](C)/C=C/C=C/C=C/1C", "note": "[Rapamycin] (10 µM)", "number of time points": 0}
{"compound": "Cc1ccc(Nc2cc(-c3cccc(N4C(=O)c5ccccc5C4=O)c3)ncn2)cc1NS(C)(=O)=O", "note": "(10 µM)", "number of time points": 0}
{"compound": "Nc1cc(Nc2ccc(S(N)(=O)=O)cc2)ncn1", "note": "(10 µM)", "number of time points": 0}
{"compound": "CCOc1cc(C(=O)N2CCC(N3CCN(C)CC3)CC2)ccc1Nc1ncc2c(n1)N(C1CCCC1)c1ccccc1C(=O)N2C", "note": "(10 µM)", "number of time points": 0}
{"compound": "COCCOc1ccc(-c2cn(-c3ccccc3)c3nc[nH]c(=O)c23)cc1", "note": "(10 µM)", "number of time points": 0}
{"compound": "Cc1cc(O)c(C(C)C)cc1N=O", "note": "[Poloxime] (10 µM)", "number of time points": 0}
